Some of the results follow.

Amino acid sequences for entries named in this document (tags omitted). A change or cut given only in a name is not applied to a line headed by its entry.
UniProt P10109: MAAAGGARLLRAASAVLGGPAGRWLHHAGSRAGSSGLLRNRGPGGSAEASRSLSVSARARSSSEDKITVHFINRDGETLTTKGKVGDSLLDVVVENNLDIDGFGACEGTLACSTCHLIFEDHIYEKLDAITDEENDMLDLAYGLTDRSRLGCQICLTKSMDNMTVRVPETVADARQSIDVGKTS
UniProt Q8NB91: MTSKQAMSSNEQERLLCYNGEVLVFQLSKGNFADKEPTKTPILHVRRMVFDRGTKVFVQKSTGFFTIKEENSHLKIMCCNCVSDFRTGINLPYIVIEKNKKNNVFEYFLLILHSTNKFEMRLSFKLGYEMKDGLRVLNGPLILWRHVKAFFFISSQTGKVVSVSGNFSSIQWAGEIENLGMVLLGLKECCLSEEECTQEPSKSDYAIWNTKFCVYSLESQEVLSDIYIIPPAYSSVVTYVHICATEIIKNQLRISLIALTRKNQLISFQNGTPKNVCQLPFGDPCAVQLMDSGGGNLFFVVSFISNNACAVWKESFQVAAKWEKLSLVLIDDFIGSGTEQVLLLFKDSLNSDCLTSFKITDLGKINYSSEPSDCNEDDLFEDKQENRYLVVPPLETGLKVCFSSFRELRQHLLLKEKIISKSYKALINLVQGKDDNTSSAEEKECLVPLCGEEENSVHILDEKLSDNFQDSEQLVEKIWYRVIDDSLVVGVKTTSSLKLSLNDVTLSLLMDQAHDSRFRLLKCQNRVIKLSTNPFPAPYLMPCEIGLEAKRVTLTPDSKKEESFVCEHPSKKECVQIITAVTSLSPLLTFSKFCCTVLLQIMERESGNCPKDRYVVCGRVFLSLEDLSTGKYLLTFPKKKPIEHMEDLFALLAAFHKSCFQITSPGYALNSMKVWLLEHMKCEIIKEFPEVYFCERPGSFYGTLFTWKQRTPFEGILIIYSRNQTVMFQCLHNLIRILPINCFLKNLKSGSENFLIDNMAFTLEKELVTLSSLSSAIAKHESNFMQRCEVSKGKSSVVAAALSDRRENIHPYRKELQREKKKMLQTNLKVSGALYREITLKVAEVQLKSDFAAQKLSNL
UniProt Q9NUQ9: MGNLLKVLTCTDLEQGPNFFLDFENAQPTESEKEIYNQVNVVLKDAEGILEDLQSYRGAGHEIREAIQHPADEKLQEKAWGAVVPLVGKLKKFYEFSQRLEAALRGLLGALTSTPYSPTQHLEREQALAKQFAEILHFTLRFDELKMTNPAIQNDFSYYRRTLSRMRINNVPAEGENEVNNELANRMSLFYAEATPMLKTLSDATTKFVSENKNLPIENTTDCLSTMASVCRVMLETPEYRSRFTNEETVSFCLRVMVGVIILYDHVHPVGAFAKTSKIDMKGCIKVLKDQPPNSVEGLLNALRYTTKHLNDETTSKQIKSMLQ
UniProt Q8TB52: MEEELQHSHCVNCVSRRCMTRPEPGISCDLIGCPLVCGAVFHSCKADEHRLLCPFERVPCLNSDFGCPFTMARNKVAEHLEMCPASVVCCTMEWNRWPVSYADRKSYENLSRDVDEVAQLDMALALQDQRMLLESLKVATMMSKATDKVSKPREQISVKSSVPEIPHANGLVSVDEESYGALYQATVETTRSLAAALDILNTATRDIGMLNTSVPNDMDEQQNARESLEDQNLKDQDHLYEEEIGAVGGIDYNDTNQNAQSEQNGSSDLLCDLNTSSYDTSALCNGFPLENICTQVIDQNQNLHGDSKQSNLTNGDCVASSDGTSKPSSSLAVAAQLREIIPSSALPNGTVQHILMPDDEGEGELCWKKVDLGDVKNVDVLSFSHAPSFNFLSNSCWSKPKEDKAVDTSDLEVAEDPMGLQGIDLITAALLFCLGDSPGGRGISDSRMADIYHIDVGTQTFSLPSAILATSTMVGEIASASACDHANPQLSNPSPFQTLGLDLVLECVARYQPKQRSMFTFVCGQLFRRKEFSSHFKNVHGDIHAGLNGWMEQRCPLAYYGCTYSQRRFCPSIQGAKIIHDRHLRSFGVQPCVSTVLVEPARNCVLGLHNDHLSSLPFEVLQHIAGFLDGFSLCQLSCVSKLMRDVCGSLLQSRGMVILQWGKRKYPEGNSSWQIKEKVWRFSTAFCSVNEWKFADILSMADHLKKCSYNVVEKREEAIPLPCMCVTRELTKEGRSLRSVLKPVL
UniProt P26885: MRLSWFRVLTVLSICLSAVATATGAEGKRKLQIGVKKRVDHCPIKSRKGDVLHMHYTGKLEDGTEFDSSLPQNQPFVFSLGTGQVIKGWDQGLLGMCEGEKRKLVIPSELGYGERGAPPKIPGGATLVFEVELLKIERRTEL
UniProt Q5T1M5: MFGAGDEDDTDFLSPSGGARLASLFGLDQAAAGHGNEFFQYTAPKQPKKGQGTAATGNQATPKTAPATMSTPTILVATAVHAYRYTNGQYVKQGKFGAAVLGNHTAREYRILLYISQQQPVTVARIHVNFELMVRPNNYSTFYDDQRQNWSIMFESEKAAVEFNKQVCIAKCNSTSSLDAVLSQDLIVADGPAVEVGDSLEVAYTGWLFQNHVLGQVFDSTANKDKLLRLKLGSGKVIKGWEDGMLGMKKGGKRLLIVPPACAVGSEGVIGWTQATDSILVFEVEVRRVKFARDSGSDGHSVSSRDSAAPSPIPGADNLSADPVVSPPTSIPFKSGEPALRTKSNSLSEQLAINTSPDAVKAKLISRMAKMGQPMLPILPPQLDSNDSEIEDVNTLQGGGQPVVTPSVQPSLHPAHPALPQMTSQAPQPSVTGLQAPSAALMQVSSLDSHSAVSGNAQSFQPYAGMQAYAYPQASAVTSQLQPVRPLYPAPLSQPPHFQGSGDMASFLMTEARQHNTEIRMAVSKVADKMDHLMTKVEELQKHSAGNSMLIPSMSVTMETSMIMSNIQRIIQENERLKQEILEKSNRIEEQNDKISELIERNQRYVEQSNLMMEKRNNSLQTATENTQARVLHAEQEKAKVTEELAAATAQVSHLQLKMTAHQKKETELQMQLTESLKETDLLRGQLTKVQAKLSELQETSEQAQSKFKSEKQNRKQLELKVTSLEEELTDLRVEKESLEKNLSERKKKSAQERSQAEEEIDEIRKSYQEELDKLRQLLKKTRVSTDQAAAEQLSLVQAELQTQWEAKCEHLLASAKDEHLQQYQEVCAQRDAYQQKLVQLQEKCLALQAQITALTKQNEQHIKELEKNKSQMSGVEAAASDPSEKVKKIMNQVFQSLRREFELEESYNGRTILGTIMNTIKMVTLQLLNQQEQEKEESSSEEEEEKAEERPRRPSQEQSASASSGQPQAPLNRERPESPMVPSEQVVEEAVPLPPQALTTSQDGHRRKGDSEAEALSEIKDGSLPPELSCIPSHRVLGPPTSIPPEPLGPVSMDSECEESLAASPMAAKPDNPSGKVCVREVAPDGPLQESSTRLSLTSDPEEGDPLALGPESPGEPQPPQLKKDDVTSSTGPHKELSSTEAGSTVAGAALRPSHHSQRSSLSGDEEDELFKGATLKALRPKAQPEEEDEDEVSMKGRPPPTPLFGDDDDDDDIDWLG
UniProt Q13045: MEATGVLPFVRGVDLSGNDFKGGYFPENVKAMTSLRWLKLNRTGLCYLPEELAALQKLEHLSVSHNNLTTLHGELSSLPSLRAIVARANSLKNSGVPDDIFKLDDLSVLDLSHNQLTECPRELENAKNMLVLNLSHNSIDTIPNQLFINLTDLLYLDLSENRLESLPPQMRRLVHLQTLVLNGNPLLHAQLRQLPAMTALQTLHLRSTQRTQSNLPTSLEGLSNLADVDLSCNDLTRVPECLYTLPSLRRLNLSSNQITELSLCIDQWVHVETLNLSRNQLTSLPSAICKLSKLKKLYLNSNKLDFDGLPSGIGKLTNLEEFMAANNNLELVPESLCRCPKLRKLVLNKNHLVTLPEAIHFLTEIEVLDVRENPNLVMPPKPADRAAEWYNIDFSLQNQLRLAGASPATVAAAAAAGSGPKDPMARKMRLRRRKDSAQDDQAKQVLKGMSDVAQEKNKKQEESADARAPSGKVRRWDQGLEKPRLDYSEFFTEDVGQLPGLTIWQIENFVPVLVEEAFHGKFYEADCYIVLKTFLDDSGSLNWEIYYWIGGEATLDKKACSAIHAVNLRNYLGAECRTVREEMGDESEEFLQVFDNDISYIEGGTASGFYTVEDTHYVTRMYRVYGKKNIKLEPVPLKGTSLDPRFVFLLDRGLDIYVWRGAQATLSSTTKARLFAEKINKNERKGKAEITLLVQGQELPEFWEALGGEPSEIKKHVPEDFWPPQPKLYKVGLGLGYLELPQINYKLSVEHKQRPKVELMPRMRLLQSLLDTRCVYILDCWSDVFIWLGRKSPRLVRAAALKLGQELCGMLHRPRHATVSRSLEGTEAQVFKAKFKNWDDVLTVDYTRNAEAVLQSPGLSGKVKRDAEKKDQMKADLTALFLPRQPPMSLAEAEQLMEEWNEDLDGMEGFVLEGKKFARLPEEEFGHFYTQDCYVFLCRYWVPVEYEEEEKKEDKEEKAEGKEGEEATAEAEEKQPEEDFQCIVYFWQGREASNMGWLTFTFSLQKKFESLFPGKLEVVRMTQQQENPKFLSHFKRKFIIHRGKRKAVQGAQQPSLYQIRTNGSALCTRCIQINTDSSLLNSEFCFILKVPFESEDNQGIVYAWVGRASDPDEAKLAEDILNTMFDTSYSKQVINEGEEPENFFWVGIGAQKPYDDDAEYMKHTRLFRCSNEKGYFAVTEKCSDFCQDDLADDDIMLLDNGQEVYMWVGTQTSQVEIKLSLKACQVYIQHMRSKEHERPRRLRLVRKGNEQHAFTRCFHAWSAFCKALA
UniProt Q8NEZ5: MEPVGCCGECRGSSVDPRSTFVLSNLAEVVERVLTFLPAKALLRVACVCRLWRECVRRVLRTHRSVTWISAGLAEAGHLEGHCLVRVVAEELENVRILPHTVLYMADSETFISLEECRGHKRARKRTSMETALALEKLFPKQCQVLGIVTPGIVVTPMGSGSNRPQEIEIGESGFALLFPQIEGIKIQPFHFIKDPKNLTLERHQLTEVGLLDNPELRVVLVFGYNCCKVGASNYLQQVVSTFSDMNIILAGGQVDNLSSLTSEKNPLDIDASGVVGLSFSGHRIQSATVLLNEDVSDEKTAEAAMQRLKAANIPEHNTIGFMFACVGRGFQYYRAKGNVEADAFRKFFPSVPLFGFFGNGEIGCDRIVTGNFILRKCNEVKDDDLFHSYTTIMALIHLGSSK
UniProt Q9HA64: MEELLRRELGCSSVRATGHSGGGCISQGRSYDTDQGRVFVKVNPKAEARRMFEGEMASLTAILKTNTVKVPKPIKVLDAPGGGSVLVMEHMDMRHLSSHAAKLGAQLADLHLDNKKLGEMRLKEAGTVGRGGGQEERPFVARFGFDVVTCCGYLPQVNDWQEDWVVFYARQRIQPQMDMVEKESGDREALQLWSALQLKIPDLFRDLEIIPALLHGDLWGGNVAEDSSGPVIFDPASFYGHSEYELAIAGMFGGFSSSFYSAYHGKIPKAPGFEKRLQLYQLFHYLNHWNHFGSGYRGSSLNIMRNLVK
UniProt O95302: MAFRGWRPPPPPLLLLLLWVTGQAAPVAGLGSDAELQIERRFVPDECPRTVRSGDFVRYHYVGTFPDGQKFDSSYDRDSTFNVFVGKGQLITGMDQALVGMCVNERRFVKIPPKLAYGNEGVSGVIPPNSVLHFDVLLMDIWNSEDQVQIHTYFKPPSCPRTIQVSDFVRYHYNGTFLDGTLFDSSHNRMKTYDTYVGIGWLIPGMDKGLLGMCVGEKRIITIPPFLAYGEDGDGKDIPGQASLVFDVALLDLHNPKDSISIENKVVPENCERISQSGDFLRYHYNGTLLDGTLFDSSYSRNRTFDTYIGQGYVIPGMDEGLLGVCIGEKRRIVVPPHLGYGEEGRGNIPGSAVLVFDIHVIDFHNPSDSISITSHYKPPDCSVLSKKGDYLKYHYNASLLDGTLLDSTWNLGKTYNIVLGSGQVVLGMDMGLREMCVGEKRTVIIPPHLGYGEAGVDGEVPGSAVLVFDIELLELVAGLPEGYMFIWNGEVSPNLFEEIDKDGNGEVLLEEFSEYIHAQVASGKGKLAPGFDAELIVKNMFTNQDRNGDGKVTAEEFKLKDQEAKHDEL
UniProt Q13451: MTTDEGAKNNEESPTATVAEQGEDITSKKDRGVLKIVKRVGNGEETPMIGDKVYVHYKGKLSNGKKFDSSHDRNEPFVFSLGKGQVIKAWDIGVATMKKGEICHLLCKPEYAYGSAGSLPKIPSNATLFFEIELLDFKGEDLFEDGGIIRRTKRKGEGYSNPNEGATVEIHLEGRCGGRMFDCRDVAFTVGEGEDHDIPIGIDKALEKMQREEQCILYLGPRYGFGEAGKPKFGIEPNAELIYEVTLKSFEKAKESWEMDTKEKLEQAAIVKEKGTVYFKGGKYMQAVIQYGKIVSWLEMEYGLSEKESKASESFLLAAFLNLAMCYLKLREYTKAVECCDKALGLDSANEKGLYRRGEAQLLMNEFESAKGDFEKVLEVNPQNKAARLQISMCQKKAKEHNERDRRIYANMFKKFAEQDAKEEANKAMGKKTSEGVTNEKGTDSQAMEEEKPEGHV
UniProt Q9Y421: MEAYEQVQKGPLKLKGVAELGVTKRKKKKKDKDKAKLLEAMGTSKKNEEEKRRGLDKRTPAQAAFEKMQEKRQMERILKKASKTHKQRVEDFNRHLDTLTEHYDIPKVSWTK

Compound in this experiment: CN(CCOC1=CC=C(C=C1)C[C@H]2C(=O)NC(=O)S2)C3=CC=CC=N3 (racemic) [rosiglitazone]
The experiment is described as follows: log2 fold change, soluble protein after heating vs DMSO (PISA); higher = thermal stabilisation; K562 cells, 10 uM, 30 min; active = over 0.2 and 3.5 SD of the protein, either way, in both replicates (recomputed). The method, boiled down: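 For each measurement, 10 μM compound was applied for 30 min to K562 cells at 2×10^6 cells/mL. Aliquots were heated for 3 min across 48°C-58°C, pooled, and extracted in PBS with 0.5% NP-40 at 4°C; the supernatant after 21,000xg for 90 min was soluble protein. This was quantified by TMTpro 16plex LC-MS/MS with channel sums equalised, and thermal stability was reported relative to control samples from duplicates, on a log2 fold-change scale.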
For FDX1 (UniProt P10109), the log2 fold change is inactive: -0.007.
In the case of FBXL12 (UniProt Q9NXK8) it was inactive: -0.025.
FKBPL (UniProt Q9UIM3): the log2 fold change is inactive: 0.006.
On to FCGR2C (UniProt P31995), for which the log2 fold change is inactive: -0.041.
Take FANCB (UniProt Q8NB91): the log2 fold change is inactive: -0.002.
Consider FIP1L1 (UniProt Q6UN15), for which the log2 fold change was inactive: -0.016.
With FLVCR1 (UniProt Q9Y5Y0), the log2 fold change was inactive: -0.023.
Take FAM49B (UniProt Q9NUQ9): the log2 fold change was inactive: 0.031.
In the case of FAM210A (UniProt Q96ND0), the log2 fold change is inactive: 0.013.
As for FBXO30 (UniProt Q8TB52), the log2 fold change is inactive: 0.023.
In the case of FKBP2 (UniProt P26885) it was inactive: -0.022.
Consider FKBP15 (UniProt Q5T1M5), for which the log2 fold change was inactive: 0.072.
On to FAR1 (UniProt Q8WVX9), for which the log2 fold change is inactive: -0.011.
FH (UniProt P07954): the log2 fold change was inactive: 0.067.
The result for FLII (UniProt Q13045) reads inactive: 0.026.
In the case of FNBP4 isoform 2 (UniProt Q8N3X1) it was inactive: -0.019; in that of FAM98B (UniProt Q52LJ0), inactive: 0.038.
The result for FBXL20 (UniProt Q96IG2) reads inactive: 0.042; that for FBXL18 isoform 4 (UniProt Q96ME1), inactive: 0.006.
In the case of FLYWCH2 (UniProt Q96CP2), the log2 fold change was inactive: 0.032.
In the case of FAM76B (UniProt Q5HYJ3), the log2 fold change was inactive: 0.012.
As for FASN (UniProt P49327), the log2 fold change was inactive: 0.042.
Take FKBP1A (UniProt P62942): the log2 fold change was inactive: 0.061.
On to FBLL1 (UniProt A6NHQ2), for which the log2 fold change is inactive: -0.179.
Consider FBXO5 (UniProt Q9UKT4), for which the log2 fold change was inactive: 0.046.
Take FARSB (UniProt Q9NSD9): the log2 fold change was inactive: 0.01.
The result for FLOT1 (UniProt O75955) reads inactive: -0.059.
As for FCSK isoform 2 (UniProt Q8N0W3), the log2 fold change was inactive: -0.034.
Regarding FBXO22 (UniProt Q8NEZ5), the log2 fold change is inactive: -0.018.
The result for FN3K (UniProt Q9H479) reads inactive: -0.025.
With FCGR2A (UniProt P12318), the log2 fold change was inactive: -0.021.
In the case of FN3KRP (UniProt Q9HA64), the log2 fold change was inactive: -0.003.
FAM98A (UniProt Q8NCA5): the log2 fold change was inactive: -0.164.
Regarding FKBP9 (UniProt O95302), the log2 fold change is inactive: 0.022.
The result for FAU (UniProt P62861) reads inactive: -0.105.
In the case of FKBP5 (UniProt Q13451), the log2 fold change is inactive: 0.082.
In the case of FDX2 (UniProt Q6P4F2) it was inactive: -0.022.
For FAM32A (UniProt Q9Y421), the log2 fold change is inactive: -0.009.

Source of the values: the supplement of paper PMC10849652.
